The text below walks through data of patent publication US20040253689A1.

Sequences of proteins named here, by UniProt entry; tags and fusion partners are left off. Residues count along the entry.
UniProt P05019, residues 49-118: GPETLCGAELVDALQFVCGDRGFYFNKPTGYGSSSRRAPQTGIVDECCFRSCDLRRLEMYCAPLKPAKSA

Results are given in words; binding and its absence hold for the method and conditions named. Some entries that bind do so weakly or less than the wild type.

In experiment [1] the target is ^125I-IGF-I (human) (UniProt P05019). As to the kind of experiment: ligand blot with ^125I-IGF-I after SDS-PAGE.
For experiment [2] the target is unchanged. As to the kind of experiment: solution binding of ^125I-IGF-I, charcoal separation.

As for “wild-type CHO-hIGFBP-3 (6xHis/Xpress/enterokinase-tagged mature human IGFBP-3 expressed in CHO-K1 cells from pRSV-Sec-BP3) (from UniProt P17936 28-291)”, the binding result with ^125I-IGF-I (human) [1] and with ^125I-IGF-I (human) [2] was “binds” throughout.
